From paper PMC4861662 (ChemMedChem, 2016)

Columns and labels:
[1] = Phase solubility diagram; conditions: container M2C2
[2] = Phase solubility diagram; conditions: container SBE-β-CD
[3] = Phase solubility diagram; conditions: container M2

## C(=C\c1ccccc1)/CN1CCN(C(c2ccccc2)c2ccccc2)CC1 [Cinnarizine]
[1]
  Highest drug concentration achieved with container: 4.40 mM
[2]
  Highest drug concentration achieved with container: 1.71 mM
[3]
  Highest drug concentration achieved with container: 0 mM
